Measured data: PubChem BioAssay AID504774 (Drosophila RNAi Screening Center, 2011)
In all, the deposit lists about 23,000 reagents; below is a random part of those with a known target gene and a result. 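Values are quantile-normalised luminescence on an arbitrary scale; higher means more cells surviving MMS.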 The numbers tell different reagents against one gene apart. Not all columns of the deposit are shown. No sequences are given here.

Screen: 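Genes required for cells to withstand methyl methanesulphonate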 (primary screen)
Cell system: Drosophila Kc167 cells
Reagents: long dsRNA against Drosophila genes, about 0.25 µg dsRNA per well
Duration: about 6 days: 3 days knock-down, then 3 days with or without MMS
Challenge: methyl methanesulphonate 0.004% (w/v) for 3 days after knock-down
Measured: 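ATP-dependent luminescence as a measure of live cells in MMS-exposed wells, quantile normalised within each plate, with replicate values also given as a mean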
Direction: mean viability with MMS: higher = more surviving cells after MMS

CG10492 → mean viability with MMS = 2.92e6
CG7183 → mean viability with MMS = 3.74e6
RYa-R → mean viability with MMS = 3.75e6
CG10055 → mean viability with MMS = 3.47e6
Neto #1 → mean viability with MMS = 2.12e6
Neto #2 → mean viability with MMS = 3.49e6
Neto #3 → mean viability with MMS = 3.59e6
Neto #4 → mean viability with MMS = 3.50e6
Hipk #1 → mean viability with MMS = 3.29e6
Hipk #2 → mean viability with MMS = 3.16e6
Hipk #3 → mean viability with MMS = 3.31e6
CG5532 → mean viability with MMS = 1.71e6
lbm → mean viability with MMS = 3.63e6

Ordered by “mean viability with MMS” (descending): some entries from above
RYa-R → mean viability with MMS = 3.75e6
CG10055 → mean viability with MMS = 3.47e6

The listing continues.
Rabex-5 → mean viability with MMS = 3.76e6
psq #1 → mean viability with MMS = 2.77e6
psq #2 → mean viability with MMS = 3.64e6
CR14499 (retired record) → mean viability with MMS = 3.58e6
CG11178 → mean viability with MMS = 3.54e6
CG5808 → mean viability with MMS = 3.42e6
CG3632 #1 → mean viability with MMS = 3.62e6
CG3632 #2 → mean viability with MMS = 3.61e6
eIF4E7 #1 → mean viability with MMS = 3.67e6
eIF4E7 #2 → mean viability with MMS = 3.43e6
CG9920 → mean viability with MMS = 3.80e6
